Results from US20190015518A1, “DRUG DELIVERY COMPOSITIONS AND METHODS” (priority 2016, published 2019).

Test system: hyaluronidase (HAdase, from bovine testes, type I-S)
Test: Degradation by hyaluronidase (SEC)
Format: biochemical

Which “degradation in the presence of HAdase” value (24 hours, pH 6.4, 37° C.) does the source give for “HA-cis-[Pt(NH3)2(N^α-Acetyl-L-Lysine)] [HA-Lys-Pt]” here?
The value was “maintained similar rates of degradation”.

“HA-cis-[Pt(NH3)2(Nα-AcetylGluH)] [HA-GluH-Pt]” was tested. Which “HAdase specificity and degradability” value did it give?
Its value is “maintained HAdase specificity and degradability”.

And the “molecular weight after HAdase digestion” value (t=24 h (35 kD at t=0 h))?
Its value is 27 kD.
